Earlier results, collected in patent US9284541B2, “Methods and compositions for protein labeling using lipoic acid ligases” (Massachusetts Institute of Technology, priority 2007, dated 2016).
Certain results were filed several times, with different values. Only these are listed. The source may hold further records. Values given together differ, and nothing given here explains why; they may come from other doses, times, organisms or constructs than stated.

Amino acid sequences for entries named in this document (tags omitted). Residues count along the entry.
UniProt P32099, 2-338 limits assumed: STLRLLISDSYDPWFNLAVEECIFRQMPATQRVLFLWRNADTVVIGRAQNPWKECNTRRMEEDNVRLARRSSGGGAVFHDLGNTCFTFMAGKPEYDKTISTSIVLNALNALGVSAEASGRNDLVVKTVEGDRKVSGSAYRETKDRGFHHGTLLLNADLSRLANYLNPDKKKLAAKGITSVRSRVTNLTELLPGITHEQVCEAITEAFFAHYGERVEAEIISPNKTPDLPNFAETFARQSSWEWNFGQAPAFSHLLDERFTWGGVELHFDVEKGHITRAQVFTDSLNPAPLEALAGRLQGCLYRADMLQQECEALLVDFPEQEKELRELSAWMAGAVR

Target: E. coli LplA (Escherichia coli, UniProt P32099)
Details: read-out: reported Km for lipoic acid; two reported values

O=C(O)CCCC[C@@H]1CCSS1
Km: 1.7 µM and 4.5 µM
